Results taken from patent publication US20050239134.
For some of these results: No signal at the amounts used counts as a negative. For some of these results: The exact form of at least one protein or probe is not confirmed.

Protein sequences, listed by entry. Tags and fused reporters are not part of them. Residues count along the entry.
UniProt P01137, 279-390: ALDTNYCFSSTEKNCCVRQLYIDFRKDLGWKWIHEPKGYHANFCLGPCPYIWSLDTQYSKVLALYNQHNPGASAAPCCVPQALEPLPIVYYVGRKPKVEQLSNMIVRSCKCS

What was measured:
[1] = biological target: T1, TGF-beta-1 (TGF-β1 homodimer) (Homo sapiens?) (UniProt P01137); assay: EMSA; settings: PS at dA and dC; monomer band negligible decrease up to 625 nM; purified recombinant protein; protein details: PeproTech (Rocky Hill, NJ); label: 3' biotin; single-stranded DNA
[2] = biological target: T1, TGF-beta-1 (TGF-β1 homodimer); assay: SELEX; settings: PS at dA and dC, purified recombinant protein, protein details: PeproTech (Rocky Hill, NJ), single-stranded DNA

| Sequence | binding result [1] | further results |
| --- | --- | --- |
| CAGTCCGGATGCTCTAGAGTGACGGTGAGGGTACATGTACACATCGACTCACACGAATCTCGTGAAGCCGAGCG [T5_14 monomeric form, bottom band] | no binding |  |
| CAGTCCGGATGCTCTAGAGTGACGTGAAAGTGCAATGGATCCAGGACCCCACACGAATCTCGTGAAGCCGAGCG [T9_5 monomeric form, bottom band] | no binding |  |
| CAGTCCGGATGCTCTAGAGTGACTGGAGGTGCCTGGATATATCGACTCGACCCCGAATCTCGTGAAGCCGAGCG [T18_1_9 family (15 of 42 round 18 clones)] |  | selection result [2]: selected |
| CAGTCCGGATGCTCTAGAGTGACTGTCGTTGTGTCCTGTACCCGCCTTGACCACGAATCTCGTGAAGCCGAGCG [T18_1_3 family (11 of 42 round 18 clones)] |  | selection result ([2]; second dominant clone after 18 rounds of filter selection in PBS, individual affinity not measured): selected |
